This assay relates to L1210 leukemia ip in BDF1 mice, survival T/C. Description: NCI In Vivo Anticancer Drug Screen. Data for tumor model L1210 Leukemia (intraperitoneal) in B6D2F1 (BDF1) mice. Particulars: T/C endpoint: mean survival time, higher T/C = longer survival.
[1] abbreviates: dose: 200.0 mg/kg/injection, schedule: Q01DX009 (ip), vehicle: saline with Tween-80.
The mark [2] stands for this setting: dose: 100.0 mg/kg/injection, schedule: Q01DX009 (ip), vehicle: Klucel (hydroxypropylcellulose) (HPC).
Where [3] appears, read: dose: 300.0 mg/kg/injection, schedule: Q01DX001 (ip), vehicle: saline.
[4] abbreviates: dose: 400.0 mg/kg/injection, schedule: Q01DX001 (ip), vehicle: saline.
Where [5] appears, read: dose: 400.0 mg/kg/injection, schedule: Q04DX003 (ip), vehicle: saline.
Setting [6] is: dose: 400.0 mg/kg/injection, schedule: Q04DX003 (ip), vehicle: saline with Tween-80.

The list does not hold the whole screen: it gathers tests that were run many times, whatever their T/C, doses with no T/C, and many T/C values between a quarter and a half above the control. Other doses and runs of a compound stand elsewhere. T/C: endpoint of the treated group in % of that of the vehicle group. Some entries give survivors of the animals treated and no T/C: the source files T/C as zero there, which appears to mark a toxic dose or a test without result, not a measured value. Some survivor counts are full or nearly so, which does not show that the dose was tolerated: the source hardly ever lists a survival T/C far under the control, and the zero likely stands for such cases as well. Counts of survivors are from the toxicity check (mostly the fifth day) where no day follows; animals may have died later. Schedules are NCI's codes, taken here to give the interval after Q, in days (D) or hours (H), and the number of doses after X. Some schedules carry Z or #; the key to these is not given. Some entries were tested several times; their values stand side by side, smallest first.

Take `N#CC1(C#N)CC=CCC1(C#N)C#N`: the survivor count is 4 of 6 (dose: 50.0 mg/kg/injection, schedule: Q01DX009 (ip), vehicle: other); 0 of 6 (dose: 100.0 mg/kg/injection, schedule: Q01DX009 (ip), vehicle: other); 0 of 6 (dose: 200.0 mg/kg/injection, schedule: Q01DX009 (ip), vehicle: other); 0 of 6 (dose: 400.0 mg/kg/injection, schedule: Q01DX009 (ip), vehicle: other).
As for `c1ccc(-c2nn(-c3ccccc3)[n+](-c3cccc4ccccc34)n2)cc1`, the survivor count is, setting by setting: (dose: 8.0 mg/kg/injection, schedule: Q01DX015 (ip), vehicle: carboxymethylcellulose (CMC)) 3 of 6; (dose: 16.0 mg/kg/injection, schedule: Q01DX015 (ip), vehicle: carboxymethylcellulose (CMC)) 0 of 6; (dose: 32.0 mg/kg/injection, schedule: Q01DX015 (ip), vehicle: carboxymethylcellulose (CMC)) 0 of 6.
As for `CCCn1c(O)c(C(=O)CC)sc1=S`, the survivor count under setting [1] is 0 of 3.
Turning to `COc1c(O)c(O)cc2c[n+]3ccccc3c(C)c12`, the survivor count reads like this: under setting [2], 0 of 3; (dose: 200.0 mg/kg/injection, schedule: Q01DX009 (ip), vehicle: Klucel (hydroxypropylcellulose) (HPC)) 0 of 3.
`Oc1ccc(N=Nc2ccccc2)c(O)c1.Oc1ccc(N=Nc2ccccc2)c(O)c1.[Cu]`: the survivor count is given as 4 of 4 (dose: 100.0 mg/kg/injection, schedule: Q01DX001 (ip), vehicle: carboxymethylcellulose (CMC)) and 4 of 4 (dose: 200.0 mg/kg/injection, schedule: Q01DX001 (ip), vehicle: carboxymethylcellulose (CMC)).
Turning to `CC/C=C(\CCC)C1(CC)C(=O)NC(=O)NC1=O`, the survivor count under setting [3] is given as 0 of 6.
As for `O=CO.[Tl]`, the survivor count is given as 0 of 6 (dose: 100.0 mg/kg/injection, schedule: Q01DX001 (ip), vehicle: saline); 0 of 6 (dose: 200.0 mg/kg/injection, schedule: Q01DX001 (ip), vehicle: saline); 0 of 6 under setting [4].
On to `C=CCOCC(O)CN(C)CCCCCCCCCCCC` (stereo not given), for which the survivor count reads like this: (dose: 50.0 mg/kg/injection, schedule: Q04DX003 (ip), vehicle: Klucel (hydroxypropylcellulose) (HPC)) 0 of 6; under setting [2], 0 of 6; (dose: 100.0 mg/kg/injection, schedule: Q04DX003 (ip), vehicle: Klucel (hydroxypropylcellulose) (HPC)) 0 of 6; (dose: 200.0 mg/kg/injection, schedule: Q04DX003 (ip), vehicle: Klucel (hydroxypropylcellulose) (HPC)) 0 of 6 and 6 of 6; (dose: 400.0 mg/kg/injection, schedule: Q04DX003 (ip), vehicle: Klucel (hydroxypropylcellulose) (HPC)) 0 of 6.
`COc1ccc(C(O)(CNCc2ccccc2)c2ccccc2)cc1` (stereo not given): the survivor count (dose: 200.0 mg/kg/injection, schedule: Q01DX001 (ip), vehicle: saline with Tween-80) is reported as 3 of 6 and the survivor count (dose: 400.0 mg/kg/injection, schedule: Q01DX001 (ip), vehicle: saline with Tween-80) is recorded as 1 of 6.
As to `O=C(Nc1ccc(CCC2=NCCCN2)cc1)c1ccc(C(=O)Nc2ccc(CCC3=NCCCN3)cc2)cc1`, the survivor count (dose: 480.0 mg/kg/injection, schedule: Q01DX Z (ip), vehicle: saline) is 4 of 6.
Turning to `C[N+](C)(C)CC(=O)[O-]`, the survivor count is 3 of 6 (dose: 400.0 mg/kg/injection, schedule: Q01DX009 (ip), vehicle: saline) and 4 of 6 under setting [5].
Turning to `NCc1cc([N+](=O)[O-])ccc1Cl`, under setting [6], the survivor count was 4 of 6.
Turning to `Cc1nc(Cl)c(C#N)nc1C`, the survivor count under setting [6] was 5 of 6.
As for `N#C/C(=C(/Cc1ccc(F)cc1)NP(=O)(c1ccccc1)c1ccccc1)c1ccc(F)cc1`, where the note is “dose: 400.0 mg/kg/injection, schedule: Q01DX001 (ip), vehicle: steroid suspending solution”, the survivor count is 6 of 6.
Take `COc1cc(C(C)=O)ccc1OCc1ccccc1`: the survivor count is given as 6 of 6 (dose: 50.0 mg/kg/injection, schedule: Q01DX009 (ip), vehicle: saline with Tween-80); 5 of 6 (dose: 100.0 mg/kg/injection, schedule: Q01DX009 (ip), vehicle: saline with Tween-80); 5 of 6 (dose: 150.0 mg/kg/injection, schedule: Q01DX009 (ip), vehicle: saline with Tween-80); 5 of 6 under setting [1]; 6 of 6 (dose: 300.0 mg/kg/injection, schedule: Q01DX009 (ip), vehicle: saline with Tween-80).
As to `COc1ccc(COC(=O)Nc2ccccc2)cc1`, the survivor count (dose: 300.0 mg/kg/injection, schedule: Q01DX001 (ip), vehicle: carboxymethylcellulose (CMC)) is given as 0 of 6.
Turning to `CCOP(=O)(OCC)O/N=C(/c1ccccc1)C(C)C`, the survivor count reads like this: (dose: 75.0 mg/kg/injection, schedule: Q01DX001 (ip), vehicle: saline) 0 of 6; (dose: 80.0 mg/kg/injection, schedule: Q01DX001 (ip), vehicle: saline) 0 of 6; (dose: 150.0 mg/kg/injection, schedule: Q01DX001 (ip), vehicle: saline) 0 of 6; under setting [3], 0 of 6.
As to `O=C(OCc1ccccc1CN1CCCC1)c1ccccc1`, the survivor count runs as follows: (dose: 200.0 mg/kg/injection, schedule: Q01DX001 (ip), vehicle: Klucel (hydroxypropylcellulose) (HPC)) 2 of 6; (dose: 400.0 mg/kg/injection, schedule: Q01DX001 (ip), vehicle: Klucel (hydroxypropylcellulose) (HPC)) 2 of 6.
In the case of `COC(=O)C1(C)COP(=O)(Nc2ccc(OC)cc2)OC1` (stereo not given), the survivor count under setting [4] is given as 4 of 4.
With `CSC(N)=Nc1cccc(C)c1C`, the survivor count is listed as 2 of 6 (dose: 200.0 mg/kg/injection, schedule: Q01DX009 (ip), vehicle: saline) and 1 of 6 under setting [5].
On to `C1CCC(NC2=NCCO2)CC1`, for which the survivor count (dose: 100.0 mg/kg/injection, schedule: Q04DX002 (ip), vehicle: saline with Tween-80) is 3 of 3.

Values taken from PubChem BioAssay AID248 (DTP/NCI, 2004).
